Article PMC8165255
No constants are given. Whether binding was seen depends on the method and setting. Binding seen in cells or lysates may run through a third protein. Some binding calls cover weakened binding; strength is not graded here.

Amino acid sequences for entries named in this document (tags omitted).
UniProt P67809: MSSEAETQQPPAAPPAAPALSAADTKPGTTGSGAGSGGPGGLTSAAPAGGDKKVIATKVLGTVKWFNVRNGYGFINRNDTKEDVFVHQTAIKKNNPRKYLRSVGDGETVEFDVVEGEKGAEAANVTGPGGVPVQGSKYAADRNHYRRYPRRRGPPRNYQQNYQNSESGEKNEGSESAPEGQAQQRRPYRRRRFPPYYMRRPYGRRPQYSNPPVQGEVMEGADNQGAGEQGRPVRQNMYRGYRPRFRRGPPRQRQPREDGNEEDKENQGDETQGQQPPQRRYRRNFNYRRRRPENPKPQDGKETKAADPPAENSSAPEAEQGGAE
UniProt O14746: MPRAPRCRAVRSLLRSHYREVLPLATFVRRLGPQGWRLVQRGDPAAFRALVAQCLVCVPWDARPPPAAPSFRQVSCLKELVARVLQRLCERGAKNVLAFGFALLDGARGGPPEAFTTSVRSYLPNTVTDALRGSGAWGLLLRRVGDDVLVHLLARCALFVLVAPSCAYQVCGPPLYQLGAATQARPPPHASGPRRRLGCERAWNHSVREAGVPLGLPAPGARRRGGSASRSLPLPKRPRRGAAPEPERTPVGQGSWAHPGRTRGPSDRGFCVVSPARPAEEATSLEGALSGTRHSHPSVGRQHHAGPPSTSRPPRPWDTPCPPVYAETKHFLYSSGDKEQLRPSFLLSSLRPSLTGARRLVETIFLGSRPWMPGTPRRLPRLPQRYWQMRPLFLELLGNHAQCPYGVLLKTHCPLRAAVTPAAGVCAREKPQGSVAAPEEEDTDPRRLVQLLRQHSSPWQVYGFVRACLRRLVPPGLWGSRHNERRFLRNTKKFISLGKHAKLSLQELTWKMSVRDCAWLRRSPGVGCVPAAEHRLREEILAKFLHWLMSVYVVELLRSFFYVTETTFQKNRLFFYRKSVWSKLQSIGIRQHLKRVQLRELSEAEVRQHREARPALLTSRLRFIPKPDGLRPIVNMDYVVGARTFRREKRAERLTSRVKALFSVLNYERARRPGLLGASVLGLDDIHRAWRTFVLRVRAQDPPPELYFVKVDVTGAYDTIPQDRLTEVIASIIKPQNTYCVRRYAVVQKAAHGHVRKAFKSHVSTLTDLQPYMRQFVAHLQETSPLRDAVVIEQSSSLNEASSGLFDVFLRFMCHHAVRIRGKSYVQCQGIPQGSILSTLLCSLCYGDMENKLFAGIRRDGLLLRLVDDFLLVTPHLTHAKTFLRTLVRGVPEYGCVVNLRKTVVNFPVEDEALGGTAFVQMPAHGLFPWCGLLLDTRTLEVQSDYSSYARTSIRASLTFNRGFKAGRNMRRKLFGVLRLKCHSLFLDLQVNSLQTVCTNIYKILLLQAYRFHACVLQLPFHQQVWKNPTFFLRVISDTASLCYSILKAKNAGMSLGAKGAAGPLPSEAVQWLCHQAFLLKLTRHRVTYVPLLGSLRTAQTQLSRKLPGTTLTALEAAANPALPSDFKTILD

How the values were obtained:
[1] = molecular target: YBX1 (human (endogenous in HCT116)) (UniProt P67809); assay: co-IP; HCT116 cell lysates, separate IP with hTERT and YBX1 antibody and protein A/G beads (Co-IP kit, Active Motif), detected by western blotting
[2] = molecular target: Human telomerase reverse transcriptase (human (endogenous in HCT116)) (UniProt O14746); assay: as above

binding [1] | binding [2] | Substance
binds |  | Human telomerase reverse transcriptase (from UniProt O14746 1-1132)
 | binds | YBX1 (from UniProt P67809 1-324)
